Results published in US9828389B2, “Tetrazolinone compounds and their use as pesticides” (SUMITOMO CHEMICAL COMPANY, LIMITED, priority 2012, dated 2017).
Where two headings read alike, the source gives them in different places. Some results were stated once for a whole list of compounds, not compound by compound.

Key:
Format in all cases: in vivo
[1] = tested on: rice blast fungi (Magnaporthe grisea); details: rice (cv; Nipponbare), 6 days in contact with infected seedlings
[2] = tested on: wheat rust fungi (Puccinia recondita); assay: Wheat rust control test, foliar spray on wheat; details: wheat (cv; Shirogane), inoculated after 5 days, observed after 1+8 days
Description: The spores of wheat rust fungi (Puccinia recondita) were sprinkling-inoculated. After inoculation, the plants were placed under a dark and humid condition at 23° C. for 1 day and were then cultivated at 20° C. under lighting for 8 days and a lesion area was observed.

[3] = tested on: tomato late blight fungi (Phytophthora infestans); details: tomato (cv; Patio), foliar spray 500 ppm, observed after 1+4 days
[4] = tested on: barley net blotch fungi (Pyrenophora teres); assay: Barley net blotch control test, foliar spray on barley; details: barley (cv; Mikamo Golden), foliar spray 200 ppm, inoculated after 2 days, observed after 3+7 days
[5] = tested on: wheat leaf blotch fungi (Septoria tritici); assay: Wheat leaf blotch control test, foliar spray on wheat; details: wheat (cv; Apogee), foliar spray 200 ppm, inoculated after 4 days, observed after 3 days + 14 to 18 days
[6] = tested on: powdery mildew fungi (Sphaerotheca fuliginea); assay: Cucumber powdery mildew control test, foliar spray on cucumber; details: cucumber (cv; Sagamihanjiro), foliar spray 200 ppm, observed after 8 days
[7] = tested on: soybean rust fungi (phakopsora pachyrhizi); assay: Soybean rust control test, foliar spray on soybean; details: soybean (cv: Kurosengoku), foliar spray 200 ppm, inoculated after 2 days, observed after 3+14 days
[8] = tested on: barley leaf blotch fungi (Rhynchosporium secalis); assay: Barley leaf blotch control test, foliar spray on barley; details: barley (cv; Mikamo Golden), foliar spray 200 ppm, inoculated after 2 days, observed after 3+7 days
[9] = tested on: cucumber anthracnose fungi (Colletotrichum lagenarium); assay: Cucumber anthracnose control test, foliar spray on cucumber; details: cucumber (cv; Sagamihanjiro), foliar spray 200 ppm, inoculated after 1 day, observed after 1+6 days

Measured: lesion area compared to the lesion area in untreated plants

COc1cccc(-n2nnn(C)c2=O)c1COc1ccc(-n2cc(C)cn2)cc1C [Present compound 65, 1-{3-methoxy-2-[2-methyl-4-(4-methyl-pyrazol-1-yl)-phenoxymethyl]-phenyl}-4-methyl-1,4-dihydrotetrazole-5-one]
≤ 30%: [1]; foliar spray 500 ppm | [2]; foliar spray 200 ppm | [3]

COc1cccc(-n2nnn(C)c2=O)c1COc1ccc(-c2ccn(C)n2)cc1C [Present compound 84, 1-{3-methoxy-2-[2-methyl-4-(1-methyl-1H-pyrazol-3-yl)-phenoxymethyl]-phenyl}-4-methyl-1,4-dihydrotetrazole-5-one]
≤ 30%: [1]; foliar spray 500 ppm | [2]; foliar spray 200 ppm | [2]; foliar spray 500 ppm | [3]

COc1cccc(-n2nnn(C)c2=O)c1COc1ccc(-n2cc(C)c(C)n2)cc1C [Present compound 85, 1-{3-methoxy-2-[2-methyl-4-(3,4-dimethyl-pyrazol-1-yl)-phenoxymethyl]-phenyl}-4-methyl-1,4-dihydrotetrazole-5-one]
≤ 30%: [1]; foliar spray 500 ppm | [2]; foliar spray 200 ppm | [2]; foliar spray 500 ppm | [3]

CCn1ccc(-c2ccc(OCc3c(OC)cccc3-n3nnn(C)c3=O)c(C)c2)n1 [Present compound 87, 1-{3-methoxy-2-[2-methyl-4-(1-ethyl-1H-pyrazol-3-yl)-phenoxymethyl]-phenyl}-4-methyl-1,4-dihydrotetrazole-5-one]
≤ 30%: [1]; foliar spray 500 ppm | [2]; foliar spray 200 ppm | [2]; foliar spray 500 ppm | [3]

COc1cccc(-n2nnn(C)c2=O)c1COc1ccc(-c2cc(C)n(C)n2)cc1C [Present compound 90, 1-{3-methoxy-2-[2-methyl-4-(1,5-dimethyl-1H-pyrazol-3-yl)-phenoxymethyl]-phenyl}-4-methyl-1,4-dihydrotetrazole-5-one]
≤ 30%: [1]; foliar spray 500 ppm | [2]; foliar spray 200 ppm | [3]

C=Cc1cccc(-n2nnn(C)c2=O)c1COc1ccc(-c2nn(C)c(Cl)c2C)cc1C [Present compound 284, 1-{3-vinyl-2-[2-methyl-4-(5-chloro-1,4-dimethyl-1H-pyrazol-3-yl)-phenoxymethyl]-phenyl}-4-methyl-1,4-dihydrotetrazole-5-one]
≤ 30%: [1]; foliar spray 200 ppm | [2]; foliar spray 200 ppm | [4] | [5] | [6] | [7] | [8] | [9]
